Measurements reported in patent US11446309B2, “Combination therapy for cancer using bromodomain and extra-terminal (BET) protein inhibitors” (Dana-Farber Cancer Institute, Inc., priority 2013, dated 2022).
For at least one compound, name, drawing or mass did not settle the structure.

Test system: H2122 human lung cancer line, m855 mouse GEM line, diffuse large B-cell lymphoma and Burkitt's lymphoma cell lines
Assay: Combination with JQ1, cell viability isobolograms (cell line not stated for the result)
Format: cell-based
Method: Compounds were profiled against H2122 human lung cancer line and m855 mouse GEM line containing p53/kRas mutations. Compounds were also profiled against diffuse large B-cell lymphoma cell lines OCI-Ly1, OCI-Ly3, OCI-Ly4, OCI-Ly7, S-DHL4, SU-DHL6, SU-DHL7, HBL1, K422, U2932 and Toledo, and against Burkitt's lymphoma cell lines Raji and Ca46.
Using a Biotek EL406, 50 uL of cell media containing 20-60,000 cells/ml was distributed into white 384-well Nunc plates (Thermo). Suspension cells then received compound immediately while adherent cells lines were given one hour to reattach to the surface of the plate prior to compound addition. The compounds to be tested were dissolved in DMSO and arrayed on 384 well compound storage plates (Greiner). Each compound plate received one compound in 5 point dose response approximately centered on the IC50 of the given compound for a given cell line.
After addition of compound, cell plates were incubated for 72 hr in a […] incubator. Cell viability was evaluated using ATPlite (Perkin Elmer) following manufacturer protocols. Data was analyzed in CalcuSyn utilizing the median effect principle of presented by Chou-Talalay and visualized using GraphPad Prism Software. Key parameters assessed were combination index and dose reduction index. […]

SMILES | Type of response when administered in combination with JQ1 (isobologram)
Cn1cnc2c(F)c(Nc3ccc(Br)cc3Cl)c(C(=O)NOCCO)cc21 [AZD6244, Selumetinib] | synergistic response
Cc1nc(Nc2ncc(C(=O)Nc3c(C)cccc3Cl)s2)cc(N2CCN(CCO)CC2)n1 [dasatinib] | synergistic response
